Test results published in the supplement of paper PMC4604168 (melanoma cell lines).
The other results are listed elsewhere or left out. Single values are uncertain, as repeats are few or missing.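 Cells were imaged in 1,536-well plates, and nuclei stained with an antibody against cleaved PARP were counted against all DNA-stained nuclei to give the apoptosis fraction. Screening doses were chosen to leave most cells alive, and resting and induced cleaved-PARP levels differ strongly between cell lines.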

How the values were obtained:
Experiment in all cases: cleaved PARP positive nuclei fraction relative to DMSO control; melanoma cells; higher = more apoptosis
Conditions in all cases: library dose: low library concentration; 72 h
501Mel = tested on: 501Mel
A101D = tested on: A101D
A2058 = tested on: A2058
A375 = tested on: A375
C32 = tested on: C32
CBRC008 = tested on: CBRC008 (line from a melanoma biopsy)
CBRC014 = tested on: CBRC014 (line from a melanoma biopsy)
CBRC016 = tested on: CBRC016 (line from a melanoma biopsy)
CBRC017 = tested on: CBRC017 (line from a melanoma biopsy)
CBRC013 = tested on: CBRC013 (line from a melanoma biopsy)

Row | Compound | cleaved PARP positive nuclei fraction (501Mel) [%] | cleaved PARP positive nuclei fraction (A101D) [%] | cleaved PARP positive nuclei fraction (A2058) [%] | cleaved PARP positive nuclei fraction (A375) [%] | cleaved PARP positive nuclei fraction (C32) [%] | cleaved PARP positive nuclei fraction (CBRC008) [%] | cleaved PARP positive nuclei fraction (CBRC014) [%] | cleaved PARP positive nuclei fraction (CBRC016) [%] | cleaved PARP positive nuclei fraction (CBRC017) [%] | cleaved PARP positive nuclei fraction (CBRC013) [%]
1 | C[C@@H](N)c1ccc(C(=O)Nc2ccnc3[nH]ccc23)cc1 + N.N.[Cl][Pt][Cl] [cisplatin] (first compound 0.4 µM, partner dose 1.6 µM) | 109 | 198 | 125 | 35.5 | 80.2 | 290 | 99.5 | 179 | 136 | 
2 | O=c1[nH]nc(Sc2ncc([N+](=O)[O-])s2)n1-c1ccc2c(c1)OCCO2 + C[As](C)SC[C@H](NC(=O)CC[C@H](N)C(=O)O)C(=O)NCC(=O)O [Darinaparsin] (first compound 0.2 µM, partner dose 0.4 µM) | 136 | 214 | 204 | 189 | 75.7 | 105 | 127 | 82.5 | 121 | 
3 | C[C@]12O[C@H](C[C@]1(O)CO)n1c3ccccc3c3c4c(c5c6ccccc6n2c5c31)CNC4=O [Lestaurtinib] + O=C(O)[C@@H]1[O][Sb](=[O])([O][Sb]2(=[O])[O][C@H]([C@H](O)CO)[C@H](O)[C@H](C(=O)O)[O]2)[O][C@H]([C@H](O)CO)[C@@H]1O [stibogluconate] (first compound 0.004 µM, partner dose 2 µM) | 81.5 | 96.1 | 283 | 57.7 | 84.9 | 92.1 | 105 | 106 | 139 | 
4 | Cc1cn(-c2cc(NC(=O)c3ccc(C)c(Nc4nccc(-c5cccnc5)n4)c3)cc(C(F)(F)F)c2)cn1 [nilotinib] + C[As](C)SC[C@H](NC(=O)CC[C@H](N)C(=O)O)C(=O)NCC(=O)O [Darinaparsin] (first compound 0.2 µM, partner dose 0.4 µM) | 72.5 | 137 | 168 | 59.3 | 82.2 | 63.5 | 105 | 153 | 119 | 
5 | COc1cc(Nc2ncc(F)c(Nc3ccc4c(n3)NC(=O)C(C)(C)O4)n2)cc(OC)c1OC [Tamatinib] + O=C(Oc1ccc([N+](=O)[O-])cc1)N1CCC(C(O)(c2ccc3c(c2)OCO3)c2ccc3c(c2)OCO3)CC1 [JZL184] (first compound 0.4 µM, partner dose 1 µM) | 160 | 80.6 | 135 | 451 | 162 |  | 102 | 68 | 76 | 155
6 | N.N.[Cl][Pt][Cl] [cisplatin] + CCCS(=O)(=O)Nc1ccc(F)c(C(=O)c2c[nH]c3ncc(Cl)cc23)c1F [PLX4720] (first compound 1.6 µM, partner dose 0.08 µM) | 65.6 | 130 | 176 | 78.3 | 273 | 200 | 122 | 168 | 88.9 | 
7 | CC1(C)CCC(c2ccc(Cl)cc2)=C(CN2CCN(c3ccc(C(=O)NS(=O)(=O)c4ccc(N[C@H](CCN5CCOCC5)CSc5ccccc5)c(S(=O)(=O)C(F)(F)F)c4)cc3)CC2)C1 + C[C@]12O[C@H](C[C@]1(O)CO)n1c3ccccc3c3c4c(c5c6ccccc6n2c5c31)CNC4=O [Lestaurtinib] (first compound 0.4 µM, partner dose 0.004 µM) | 178 | 148 | 124 | 163 | 198 | 436 | 480 | 515 | 344 | 
8 | N.N.[Cl][Pt][Cl] [cisplatin] + Clc1ccc(Nc2nnc(Cc3ccncc3)c3ccccc23)cc1 [vatalanib] (first compound 1.6 µM, partner dose 2 µM) | 103 | 99.3 | 120 | 1050 | 67.8 | 380 | 238 | 291 | 108 | 
9 | Cn1c(=O)n(-c2ccc(C(C)(C)C#N)cc2)c2c3cc(-c4cnc5ccccc5c4)ccc3ncc21 + C[As](C)SC[C@H](NC(=O)CC[C@H](N)C(=O)O)C(=O)NCC(=O)O [Darinaparsin] (first compound 0.004 µM, partner dose 0.4 µM) | 133 | 156 | 85.4 | 103 | 79.9 | 101 | 81.7 | 88.7 | 96.6 | 
10 | CC[C@]1(O)C[C@H]2CN(CCc3c([nH]c4ccccc34)[C@@](C(=O)OC)(c3cc4c(cc3OC)N(C=O)[C@H]3[C@@](O)(C(=O)OC)[C@H](OC(C)=O)[C@]5(CC)C=CCN6CC[C@]43[C@@H]65)C2)C1 [vincristine] + Cn1cc(C2=C(c3cn(C4CCN(Cc5ccccn5)CC4)c4ccccc34)C(=O)NC2=O)c2ccccc21 [Enzastaurin] (first compound 0.0001 µM, partner dose 0.8 µM) | 84.5 | 149 | 153 | 97.3 | 179 | 102 | 170 | 152 | 96.1 | 
11 | N.N.[Cl][Pt][Cl] [cisplatin] + Nc1ncn([C@H]2C[C@H](O)[C@@H](CO)O2)c(=O)n1 [decitabine] (first compound 1.6 µM, partner dose 0.1 µM) | 135 | 52.4 | 93.8 | 109 | 85.8 | 565 | 156 | 151 | 194 | 
12 | Cn1cc(C2=C(c3cn(C4CCN(Cc5ccccn5)CC4)c4ccccc34)C(=O)NC2=O)c2ccccc21 [Enzastaurin] + CCN(CC)CCNC(=O)c1c(C)[nH]c(/C=C2\C(=O)Nc3ccc(F)cc32)c1C [sunitinib] (first compound 0.8 µM, partner dose 0.4 µM) | 79.4 | 87.7 | 42.6 | 49.5 | 74.5 | 203 | 123 | 77 | 97.6 | 
13 | COc1cc([C@@H]2c3cc4c(cc3[C@@H](O[C@@H]3O[C@@H]5CO[C@@H](C)O[C@H]5[C@H](O)[C@H]3O)[C@H]3COC(=O)[C@H]23)OCO4)cc(OC)c1O [etoposide] + C[C@]12O[C@H](C[C@]1(O)CO)n1c3ccccc3c3c4c(c5c6ccccc6n2c5c31)CNC4=O [Lestaurtinib] (first compound 0.02 µM, partner dose 0.004 µM) | 56.4 | 60.4 | 88.1 | 154 | 87.2 | 36.2 | 307 | 68.1 | 101 | 
14 | O=c1[nH]nc(Sc2ncc([N+](=O)[O-])s2)n1-c1ccc2c(c1)OCCO2 + Cn1cc(C2=C(c3cn(C4CCN(Cc5ccccn5)CC4)c4ccccc34)C(=O)NC2=O)c2ccccc21 [Enzastaurin] (first compound 0.2 µM, partner dose 0.8 µM) | 67.3 | 86.1 | 92 | 80.9 | 72.5 | 87.1 | 99.1 | 89.5 | 106 | 
15 | COc1ccc(C2=N[C@@H](c3ccc(Cl)cc3)[C@@H](c3ccc(Cl)cc3)N2C(=O)N2CCNC(=O)C2)c(OC(C)C)c1 [Nutlin-3] + C[C@]12O[C@H](C[C@]1(O)CO)n1c3ccccc3c3c4c(c5c6ccccc6n2c5c31)CNC4=O [Lestaurtinib] (first compound 0.1 µM, partner dose 0.004 µM) | 268 | 197 | 53.2 | 54.2 | 79.1 | 108 | 111 | 116 | 122 | 
16 | C[C@@H](N)c1ccc(C(=O)Nc2ccnc3[nH]ccc23)cc1 + Cn1cc(C2=C(c3cn(C4CCN(Cc5ccccn5)CC4)c4ccccc34)C(=O)NC2=O)c2ccccc21 [Enzastaurin] (first compound 0.4 µM, partner dose 0.8 µM) | 47.5 | 105 | 131 | 165 | 46.4 | 49.3 | 116 | 120 | 86.2 | 

Two entries from above, reformatted:
Row,Compound,cleaved PARP positive nuclei fraction (501Mel) [%],cleaved PARP positive nuclei fraction (A101D) [%],cleaved PARP positive nuclei fraction (A2058) [%],cleaved PARP positive nuclei fraction (A375) [%],cleaved PARP positive nuclei fraction (C32) [%],cleaved PARP positive nuclei fraction (CBRC008) [%],cleaved PARP positive nuclei fraction (CBRC014) [%],cleaved PARP positive nuclei fraction (CBRC016) [%],cleaved PARP positive nuclei fraction (CBRC017) [%],cleaved PARP positive nuclei fraction (CBRC013) [%]
2,"O=c1[nH]nc(Sc2ncc([N+](=O)[O-])s2)n1-c1ccc2c(c1)OCCO2 + C[As](C)SC[C@H](NC(=O)CC[C@H](N)C(=O)O)C(=O)NCC(=O)O [Darinaparsin] (first compound 0.2 µM, partner dose 0.4 µM)",136,214,204,189,75.7,105,127,82.5,121,
3,"C[C@]12O[C@H](C[C@]1(O)CO)n1c3ccccc3c3c4c(c5c6ccccc6n2c5c31)CNC4=O [Lestaurtinib] + O=C(O)[C@@H]1[O][Sb](=[O])([O][Sb]2(=[O])[O][C@H]([C@H](O)CO)[C@H](O)[C@H](C(=O)O)[O]2)[O][C@H]([C@H](O)CO)[C@@H]1O [stibogluconate] (first compound 0.004 µM, partner dose 2 µM)",81.5,96.1,283,57.7,84.9,92.1,105,106,139,
